Data: patent US10485846B2, “Collagenase-derived peptides promote tissue regeneration and wound healing” (Tufts University, priority 2014, dated 2019)
Some results were stated once for a whole list of compounds, not compound by compound. Some compounds share one range, which may span the group rather than tell each member.

Tested on: adult human keratinocytes
Assay: Adult human keratinocyte proliferation (coulter counter cell count)
Format: cell-based
Conditions: 1-100 nM peptides every other day, counted day 7 (FIG. 3B)
Description: Adult human keratinocytes were plated at low density in multi-well plates and treated with 10 nM peptides (FIG. 3A) or 1-100 nM peptides (FIG. 3B) every other day. At day 7 post-plating the cells were counted using a coulter counter. Cell proliferation relative to control (FIG. 3A) or absolute cell number grown (FIG. 3B) are shown. *statistical significance (p<0.05).
In our efforts aimed at characterizing the growth-promoting, migration-enhancing and angiogenesis-inducing activities embodied in SANTYL® collagenase Ointment and in an effort focused on contrasting the efficacy of collagenase vs. the newly-discovered SANTYL® collagenase API-derived bioactive wound healing peptide(s), we continue to perform a battery of pre-clinical tests and trials using the well-established models of injury and repair developed, here, at Tufts University School of Medicine and the Center for Innovations in Wound Healing Research. To these ends, we took advantage of the 2D and 3D injury/repair models developed to quantify cellular responses to injury. […] This is especially noteworthy since these peptides not only promote vascular endothelial growth but, adult human keratinocyte growth.

Sequence | concentration range promoting adult human keratinocyte proliferation
MENAELDVPIQSVFTR (listed as Homo sapiens) [TSN2, 16 aa peptide; origin Thrombospondin-1 N-terminal domain] | 1 to 10 nM
NFQGVQNRFVFGTP (listed as Homo sapiens) [TSN1, 14 aa peptide; origin Thrombospondin-1 Laminin G-like domain] | 1 to 10 nM
TGQSYNQYSQRPYLGVYVFK (listed as Homo sapiens) [TSN10, 20 aa combinatorial peptide; Combination of Thrombospondin and multimerin peptides] | 1 to 10 nM
